Results taken from PMC9898259, “Cryo-EM structure supports a role of AQP7 as a junction protein” (Nature Communications, 2023).
No constants are given. Whether binding was seen depends on the method and setting. Where a sequence is shown, tags or fusion partners need not be part of it.

Molecular target: T1, Human aquaglyceroporin 3 (AQP3), full-length, C-terminal poly-histidine tag (human), Q92482
T1 chain: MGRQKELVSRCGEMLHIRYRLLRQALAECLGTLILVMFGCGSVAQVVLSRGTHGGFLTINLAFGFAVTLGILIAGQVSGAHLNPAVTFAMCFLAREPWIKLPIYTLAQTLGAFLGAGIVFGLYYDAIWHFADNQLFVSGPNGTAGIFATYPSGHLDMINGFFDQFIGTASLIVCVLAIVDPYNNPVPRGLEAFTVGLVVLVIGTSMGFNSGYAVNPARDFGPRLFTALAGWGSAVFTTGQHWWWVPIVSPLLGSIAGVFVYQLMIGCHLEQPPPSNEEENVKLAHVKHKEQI
Experiment: cryo-EM 2D class averages; AQP7 and AQP3 samples in GDN flash frozen on C-flat Cu R1.2/1.3 grids, same conditions as for the Quantifoil grids; step looked at: tetramer with tetramer (dimer of tetramers); both purified
Details: remark: other sources report otherwise

binding: no binding
B1: Human aquaglyceroporin 3 (AQP3), full-length, C-terminal poly-histidine tag, Q92482 1-292 (protein)
chain: MGRQKELVSRCGEMLHIRYRLLRQALAECLGTLILVMFGCGSVAQVVLSRGTHGGFLTINLAFGFAVTLGILIAGQVSGAHLNPAVTFAMCFLAREPWIKLPIYTLAQTLGAFLGAGIVFGLYYDAIWHFADNQLFVSGPNGTAGIFATYPSGHLDMINGFFDQFIGTASLIVCVLAIVDPYNNPVPRGLEAFTVGLVVLVIGTSMGFNSGYAVNPARDFGPRLFTALAGWGSAVFTTGQHWWWVPIVSPLLGSIAGVFVYQLMIGCHLEQPPPSNEEENVKLAHVKHKEQI
